Weaker means in comparison with the reference protein, sequence or condition of that experiment. Where a protein sequence is shown, tags need not be part of it.
Biological target: T1, SsoSSB12-114 del1-11 (Sulfolobus solfataricus) (UniProt Q97W73)
T1 sequence (looked up): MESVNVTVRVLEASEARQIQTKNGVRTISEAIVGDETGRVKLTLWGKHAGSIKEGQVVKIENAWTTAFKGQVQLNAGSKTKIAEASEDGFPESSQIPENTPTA
Assay: NMR HSQC titration
Settings: 25 C, some chemical shift changes on ssDNA addition, authors conclude DNA binding dramatically affected; Buffer A: 100 mM NaCl, 20 mM MES pH 6.5; NMR with 10% D2O at 25 and 50 C (SsoSSB12-114 at 25 C only); recombinant protein; residues 12-114; single-stranded DNA

## AAAAAAAAAAAAAAA [dA(15)]
  binding result: binds more weakly
